{"source": "PubChem BioAssay AID1259254 (NCATS, 2017)", "test": "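Gene knock-downs that lead to re-replication, shown by excess G2 DNA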 (primary screen)", "cells": "human HCT116 colorectal cancer cells", "reagent": "single siRNA against human genes", "duration": "3 days", "read-out": "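Nuclei stained with Hoechst and imaged; cell-cycle phase assigned by DNA content; G2 share scaled per plate, non-targeting siRNA 0%, GMNN siRNA 100%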", "scale": "G2 robust z-score and G2 cells, % of GMNN control: higher = more G2 cells, more excess DNA replication", "active means": "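An siRNA counts as active if its G2 robust z-score lies at least 5 MADs above the screen median; here such calls match roughly 38% of GMNN control or more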", "note": "The whole screen tested about 59,000 reagents; below is a random part of them. Over the whole deposit, about 1,550 (2.6%) got an active call. 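G2 share is only a proxy for re-replication; each gene was hit by three separate siRNAs, and active genes were retested.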 The numbers tell different reagents against one gene apart. Further read-outs or replicates are left out here. No sequences are given here. Not stated in the record: the amount of reagent."}
{"target": "ENPEP", "reagent no.": 1, "G2 robust z-score": -0.888, "G2 cells, % of GMNN control": -3.28, "call": "inactive"}
{"target": "ENPEP", "reagent no.": 2, "G2 robust z-score": -0.121, "G2 cells, % of GMNN control": 2.11, "call": "inactive"}
{"target": "ENPEP", "reagent no.": 3, "G2 robust z-score": -0.055, "G2 cells, % of GMNN control": 2.58, "call": "inactive"}
{"target": "LINC02210", "reagent no.": 1, "G2 robust z-score": -0.133, "G2 cells, % of GMNN control": 2.03, "call": "inactive"}
{"target": "LINC02210", "reagent no.": 2, "G2 robust z-score": 0.594, "G2 cells, % of GMNN control": 7.15, "call": "inactive"}
{"target": "LINC02210", "reagent no.": 3, "G2 robust z-score": 0.00579, "G2 cells, % of GMNN control": 3.01, "call": "inactive"}
{"target": "LINC02210", "reagent no.": 4, "G2 robust z-score": -0.304, "G2 cells, % of GMNN control": 0.828, "call": "inactive"}
{"target": "LINC02210", "reagent no.": 5, "G2 robust z-score": 8.05, "G2 cells, % of GMNN control": 59.6, "call": "active"}
{"target": "LINC02210", "reagent no.": 6, "G2 robust z-score": -0.732, "G2 cells, % of GMNN control": -2.18, "call": "inactive"}
{"target": "OR5B21", "reagent no.": 1, "G2 robust z-score": 0.258, "G2 cells, % of GMNN control": 4.79, "call": "inactive"}
{"target": "OR5B21", "reagent no.": 2, "G2 robust z-score": 0.153, "G2 cells, % of GMNN control": 4.04, "call": "inactive"}
{"target": "OR5B21", "reagent no.": 3, "G2 robust z-score": 4.08, "G2 cells, % of GMNN control": 31.7, "call": "inactive"}
